# Laboratory results taken from PubChem BioAssay AID1794844 (National Center for Advancing Translational Sciences (NCATS), 2023).
# Amino acid sequences for entries named in this document (tags omitted). A change or cut given only in a name is not applied to a line headed by its entry.
# UniProt C7C422: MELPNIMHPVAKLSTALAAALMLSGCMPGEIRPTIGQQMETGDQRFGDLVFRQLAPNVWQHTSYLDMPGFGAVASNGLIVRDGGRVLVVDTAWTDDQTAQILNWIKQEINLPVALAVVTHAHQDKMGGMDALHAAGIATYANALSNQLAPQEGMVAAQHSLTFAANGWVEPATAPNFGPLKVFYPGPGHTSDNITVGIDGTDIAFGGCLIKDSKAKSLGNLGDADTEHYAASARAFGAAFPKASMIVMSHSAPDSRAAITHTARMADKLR
# Screen size: about 2,800 compounds; fewer than 10 were called active. Not shown: some 7% with an inconclusive outcome. The call rests on the fitted dose curve; in most records, active means well fitted inhibition curve with a large enough effect; inconclusive means small, poorly fitted or top-dose-only effect; inactive means no such curve, though single readings can be large or run the other way. This is one part of the list.
# Molecular target: Metallo-beta-lactamase type 2 (Klebsiella pneumoniae) (UniProt C7C422)
# Test: qHTS to identify inhibitors of the New Delhi Metallo-beta-lactamase (NDM): Nitrocefin screen against the machine-based learning selections. On activity, negative = inhibition: % of control where 0% means no effect.
# Conditions: NDM-1 enzyme, nitrocefin hydrolysis, absorbance 485 nm; activity, negative = inhibition: at the top concentration
# Summary of the method: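 Hydrolysis by 2 nM NDM-1 was followed by absorbance after >30 min compound preincubation in HEPES pH 7.0 buffer with 1 uM Zn2SO4. For nitrocefin (16.7 uM, 15 min, 485 nm) and meropenem (50 uM, 30 min, 300 nm), each substrate ran on separate plates.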
# Potency means the concentration at half of the fitted maximal effect.
SMILES,"activity, negative = inhibition",Potency
O=C1CC(C(=O)O)C2(CCN(c3cc(C(=O)O)c4ccccc4n3)CC2)N1 (stereo not drawn),inactive: 21.9%,–
Cc1nc2c(C(=O)N3CCC(c4cc(CC(=O)O)[nH]n4)CC3)cccc2[nH]1,–,active: 8.42 µM
COC(=O)[C@@H]1Cc2ncn(C(C)C)c2CN1S(=O)(=O)c1ccc(F)cc1,inactive: -2.81% [at 57.5 µM],–
NC1(Cc2cc(CN3CCN(c4ccccc4)CC3)on2)COC1,inactive: 0.138% [at 57.5 µM],–
COc1ccc(-n2nc(C)c([C@@H]3C=C[C@@H](NS(=O)(=O)c4cccs4)C3)c2C)cc1,inactive: -1.36% [at 57.5 µM],–
c1ccc(CN2CCNc3cnc(Nc4ccc(N5CCOCC5)cc4)cc3C2)cc1,inactive: 4.37% [at 57.5 µM],–
COc1cccc(-c2ccc(CN3CC4CCC(C3)N4c3ccc(C(F)(F)F)cc3)cc2)c1,inactive: 0.0666%,–
Cc1ccn2c(C(=O)N3CCCC(c4[nH]ncc4-c4ccccc4)C3)nnc2n1 (stereo not drawn),inactive: -2.87%,–
OC(c1cccc(C(F)(F)F)c1)c1nc(Nc2ccc(F)cc2F)n[nH]1 (stereo not drawn),inactive: 6.01% [at 57.5 µM],–
Cc1ccc(C(=O)N2CCN(c3nnc4cccc(C)n34)CC2)cc1F,inactive: -3.81%,–
Cc1oc(C(O)c2cccc(O)c2)nc1C(=O)Nc1ccccc1 (stereo not drawn),inactive: -5.53% [at 57.5 µM],–
Cc1oc(C(O)c2cccc(O)c2)nc1C(=O)NCc1ccccc1 (stereo not drawn),inactive: 0.241% [at 57.5 µM],–
c1ccc(CCN2CCNc3cc(-c4cn[nH]c4)ncc3C2)cc1,inactive: -5.02% [at 57.5 µM],–
c1cncc(Nc2cc3c(cn2)CN(Cc2c[nH]c4ccccc24)CCN3)c1,inactive: 1.96% [at 57.5 µM],–
O=C(N[C@H]1CO[C@H]2[C@@H]1OC[C@@H]2Nc1nccc(-c2cccc(F)c2)n1)c1ccccc1,inactive: -0.478% [at 57.5 µM],–
OCC1CCCCN1CCNc1nccc(-c2cccnc2)n1 (stereo not drawn),inactive: 2.22%,–
OC(c1nc(Nc2ccc(Cl)cc2)n[nH]1)C1CC1 (stereo not drawn),inactive: -1.83% [at 76.7 µM],–
CC(C)N1C(=O)[C@@H]2[C@@H](CCN2C(=O)CCCC(=O)O)N(Cc2cccc(F)c2)C1=O,inactive: 8.66% [at 57.5 µM],–
O=c1cc2c(nn1Cc1cccc(Br)c1)CCCCC2,inactive: 2.9%,–
Cc1ccccc1CN1C[C@H](O)C[C@H]1c1nc(-c2cccnc2)no1,inactive: -3.04% [at 57.5 µM],–
O=C(c1ccccc1F)N1CCCC2(C1)C(=NC1CCCC1)NC(=O)N2c1cc(F)cc(F)c1 (stereo not drawn),inactive: 5.78%,–

SMILES,"activity, negative = inhibition",Potency
CC(=O)N1CCN([C@H]2[C@@H]3OC[C@@H](O3)[C@@H](NC(=O)Nc3cccc(C(F)(F)F)c3)[C@@H]2O)CC1,inactive: -0.772%,–
COCCN1C[C@H]2CN(C(=O)C3CC3)CCN2C1=O,inactive: -4.99% [at 76.7 µM],–
Oc1ccc(-c2cc3c(cn2)CN(Cc2ccccc2)CCN3)cc1F,inactive: -6.16% [at 57.5 µM],–
CC1=C[C@@H](CO)[C@H](C(C)C)C[C@H]1CC(=O)NCc1ccc(F)cc1,inactive: 248% [at 57.5 µM],–
CCc1ccccc1NC(=O)Cn1ccn2nc(-c3ccc(F)cc3)c(CO)c2c1=O,inactive: -5.76%,–
COc1ccc(NC(=O)N2CCOC(c3ccc(Cl)cc3)C2)c(C)c1 (stereo not drawn),inactive: -0.195%,–
FC(F)(F)Oc1cccc(CN2CCNc3cc(Nc4cccnc4)ncc3C2)c1,inactive: 0.502% [at 57.5 µM],–
Cc1ncsc1CN(Cc1ccccc1)C(=O)CCn1nnnc1CN1CCOCC1,inactive: 3.18%,–
COc1ccc(-c2cc(-c3cccc(C(N)=O)c3)cn3cncc23)cc1,inactive: 14.3% [at 57.5 µM],–
CC(C)CC(=O)N1CCCC(Cc2nncn2C(C)C)C1 (stereo not drawn),inactive: 14.5%,–
CCCN(CC1CCOC1)C(=O)c1cc(Cl)ccc1F (stereo not drawn),inactive: 2.67%,–
OCc1cc2n(n1)CCCN(Cc1cccc(OCc3ccccn3)c1)C2,inactive: 1.29%,–
CN(CCO)CC1(O)CCCN(Cc2cccc(F)c2F)C1=O (stereo not drawn),inactive: 25.3%,–
CN(C(=O)C1CCCC1)C1CCc2ccccc2C1 (stereo not drawn),inactive: -7% [at 57.5 µM],–
Cc1ccccc1-c1cnc2[nH]cc(CC(=O)NCc3cccnc3)c2c1,inactive: 7.66% [at 57.5 µM],–
CC(C)(C)C(=O)N1CCC2(CC1)OCC(C(=O)NC1CC1)N2C(=O)c1ccc(F)cc1 (stereo not drawn),inactive: -0.943%,–
Cc1cccnc1C(=O)N[C@@H]1CN(C2CCOCC2)C[C@H]1CN(C)C,inactive: 0.378%,–
OC[C@@H]1O[C@H](CNCc2ccc(F)cc2)[C@H](N2CCOCC2)[C@@H]1O,inactive: -6.76% [at 57.5 µM],–
CC(C)C1c2nccn2CCCN1C(=O)CN1CCCC1=O (stereo not drawn),inactive: -12.7%,–
COc1ccccc1-c1[nH]nc2ncc(-c3cccc(O)c3)nc12,inactive: 19.1% [at 57.5 µM],–
COCCNC(=O)C[C@@H]1C[C@@H](C(C)C)[C@H](CNC(=O)CCC(=O)O)C=C1C,inactive: -1.35% [at 57.5 µM],–

# Single values from above.
# CC1=C[C@@H](CO)[C@H](C(C)C)C[C@H]1CC(=O)NCc1ccc(F)cc1 | activity, negative = inhibition: inactive: 248% [at 57.5 µM]
# OCc1cc2n(n1)CCCN(Cc1cccc(OCc3ccccn3)c1)C2 | activity, negative = inhibition: inactive: 1.29%
# CN(C(=O)C1CCCC1)C1CCc2ccccc2C1 (stereo not drawn) | activity, negative = inhibition: inactive: -7% [at 57.5 µM]
# OC[C@@H]1O[C@H](CNCc2ccc(F)cc2)[C@H](N2CCOCC2)[C@@H]1O | activity, negative = inhibition: inactive: -6.76% [at 57.5 µM]

# Later entries:

SMILES,"activity, negative = inhibition",Potency
O=C1[C@@H]2C[C@@H](CN2Cc2cnc3ccccc3c2)Oc2ccccc2N1Cc1ccccc1,inactive: -0.2%,–
O=C(NC[C@H]1O[C@@H](CC(=O)N2CCOCC2)[C@H](O)[C@@H]1O)Nc1ccc(F)cc1F,inactive: 20.5% [at 57.5 µM],–
CCn1c(C)cc(C)c(C(=O)NCC2CCN(c3cnn(C)c(=O)c3)C2)c1=O (stereo not drawn),inactive: 0.157%,–
COc1ccc(-c2ccc3c(c2)C(=O)N2CC[C@H](NC(=O)NC4CCCCC4)[C@H]2C(=O)N3)cc1,inactive: -2.65%,–
Cc1ccc(S(N)(=O)=O)cc1C(=O)N1CCC2(CCCNC2=O)C1 (stereo not drawn),inactive: 2.43%,–
Cn1cnnc1CC1CCN(C(=O)c2cn3ccsc3n2)CC1,inactive: -7.6%,–
Cc1ccc2c(c1)nc1n2[C@@H](CNC(C)C)COC1,inactive: -5.33% [at 76.7 µM],–
O=C(NC[C@H]1O[C@@H](CC(=O)N2CCN(c3ccc(F)cc3)CC2)[C@H](O)[C@@H]1O)c1ccco1,inactive: -8.68%,–
Cc1noc(C)c1S(=O)(=O)N1CCCC(Cc2nncn2CC2CC2)C1 (stereo not drawn),inactive: -8.28%,–
O=C(N[C@@H]1CCN(Cc2ccc3nsnc3c2)C[C@H]1O)c1cnccn1,inactive: -1.34%,–
CCC[S+](=O)([O-])N1CCN(C(=O)N2CC3CC(C2)[C@H]2CCCC(=O)N2C3)CC1 (stereo partly drawn),inactive: 0.734%,–
COc1ccc(C(=O)N[C@@H]2CN(C(=O)NC3CCCCC3)CCC[C@H]2O)cc1,inactive: -1.49% [at 57.5 µM],–
COC(=O)c1ccc2nc(C[C@@H]3C[C@@H](C(C)C)[C@H](CNC4CCOCC4)C=C3C)[nH]c2c1,inactive: 6.01%,–
Cn1cncc1-c1nnc([C@H]2CCN(C(=O)c3ccncc3)C2)o1,inactive: -1.38% [at 57.5 µM],–
O=C(NCC1CCCO1)c1ccnc(-c2nnc3ccc(Nc4ccccc4)nn23)c1 (stereo not drawn),inactive: -2.52% [at 57.5 µM],–
O=C(c1[nH]nc2c1COc1ccccc1-2)N1CCCC(Cc2nc(C3CCOCC3)no2)C1 (stereo not drawn),inactive: 2.44%,–
Oc1ccccc1CN1CCNc2cnc(Nc3ccccc3)cc2C1,inactive: -4.55% [at 57.5 µM],–
Cc1ccccc1-c1[nH]nc2ncc(-c3ccsc3)nc12,inactive: 15.8% [at 76.7 µM],–
Cc1ccccc1C(=O)Nc1ccc([C@H]2OCC(=O)N(C)[C@@H]2CO)cc1,inactive: -0.0308% [at 57.5 µM],–
CCOc1ncccc1C(=O)N1CCc2[nH]nc(-c3cccc(F)c3)c2C1,inactive: -4.41%,–
CCCC(C)N1CC2(CCN(C(=O)c3cc(Cl)ccc3C)CC2)OC1=O (stereo not drawn),inactive: 7.19%,–
